The results in this text go back to patent US11512108 (dated 2022).

*: point of attachment. Boc = CC(C)(C)OC(=O)*; OtBu = CC(C)(C)O*

This series can be described thus: general procedure: solution-phase peptide synthesis; 1-(trimethylsilyl)imidazole, Ti(Oi-Pr)4 catalyst. The note with it: coupling step.

In turn, Boc-GGGAA-OtBu displayed a step yield of 99%.
